What all share (test): co-IP; 293T cells transfected with the tagged constructs, harvested two days later; IP with mouse anti-Flag or mouse anti-Myc, immunoblot
For test [1], the target named is T1, Flag-Diap1 (Drosophila IAP-1) (Drosophila) (UniProt Q24306).
T1 sequence: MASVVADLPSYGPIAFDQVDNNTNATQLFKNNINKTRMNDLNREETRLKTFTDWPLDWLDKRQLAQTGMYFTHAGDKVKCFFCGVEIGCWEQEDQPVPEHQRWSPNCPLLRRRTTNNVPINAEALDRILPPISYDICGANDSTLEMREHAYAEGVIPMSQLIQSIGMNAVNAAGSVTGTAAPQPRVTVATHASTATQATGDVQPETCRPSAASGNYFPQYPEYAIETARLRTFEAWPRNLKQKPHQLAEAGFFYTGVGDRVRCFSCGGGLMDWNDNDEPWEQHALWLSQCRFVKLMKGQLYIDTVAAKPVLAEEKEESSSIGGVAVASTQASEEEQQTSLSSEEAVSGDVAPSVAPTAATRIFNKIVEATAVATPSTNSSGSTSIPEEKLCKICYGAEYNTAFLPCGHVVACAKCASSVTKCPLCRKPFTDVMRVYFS

The target in test [2] is Flag-Rdx (Roadkill, E3 ubiquitin ligase) (Drosophila).
Test [3] has as its target Myc-Rdx-MATH (aa1-179) (Drosophila).
Test [4] deals with Myc-Rdx-BTB (aa180-374) (Drosophila).

No constants are given. Whether binding was seen depends on the method and setting. Binding seen in cells or lysates may run through a third protein. For some assays here: Binding calls can cover weak binding; strength is not graded here. Tags and fused reporters may be left off the sequences shown.

“Myc-Rdx-BTB (aa180-374) (Drosophila) (domain or fragment)”: the binding result in test [1] is on record as “no binding”.
Same read-out and setting: for “Myc-Rdx-MATH (aa1-179) (Drosophila) (domain or fragment)” the value was “binds”.

B1: Myc-Diap1 (Drosophila IAP-1) (protein, UniProt Q24306 1-438)
chain: T1 sequence
Consider B1, for which the binding result in test [2] was “binds”.

B2: Flag-Diap1 (Drosophila IAP-1) (protein, UniProt Q24306 1-438)
chain: T1 sequence
Consider B2, for which the values for the binding result in test [3] and in test [4] were “binds” and “no binding”, respectively.

These data come from PMC8463586.
